Test results: US9895337B2, “Compositions containing monoacetyldiacylglycerol compound as an active ingredient for preventing or treating rheumatoid arthritis” (ENZYCHEM LIFESCIENCES CORPORATION, priority 2013, dated 2018)
At least one compound was matched to its structure with a doubt left.

Columns and labels:
STAT-3 [1] = experiment: Inhibition of IL-6-induced STAT-3 phosphorylation in U937 cells (western blot); assay type: cell-based, Human; conditions: IL-6 treatment
[2] = tested on: sepsis animal model (cecal-ligation-puncture); conditions: cited from earlier work
STAT-3 [3] = experiment: STAT-3 luciferase reporter (SIE) in A549 cells, IL-10 induced; assay type: cell-based, Human; conditions: 1 h pre-treatment, 10 ng/ml IL-10, 6 hours, vs IL-10 alone (FIG. 3A)
STAT-3 [4] = experiment: STAT-3 luciferase reporter (SIE) in HepG2 cells, IL-10 induced; assay type: cell-based, Human; conditions: 1 h pre-treatment, 10 ng/ml IL-10, 6 hours, vs IL-10 alone (FIG. 3B)
[5] = tested on: collagen-induced arthritis in male DBA/1J mouse; experiment: Arthritis animal model induced by bovine type II collagen; assay type: in vivo
Protocol: For arthritis animal model experiment, arthritis was induced in male DBA/1J mouse by administering bovine type II collagen to the mouse. Efficacy of EC-18 for treating (or improving) arthritis was evaluated by repeatedly administering EC-18 to the mouse orally. For comparison, Remicade (positive control 1) was administered intraperitoneally and methotrexate (positive control 2) was administered orally. The experiment included seven groups: normal group (G1), negative control (G2), 125 mg/kg, 500 mg/kg and 2,000 mg/kg of EC-18 (EC-18 treatment groups, G3, G4, G5), 20 mg/kg of Remicade (Positive control 1, G6) and 2.5 mg/kg of Methotrexate (Positive control 2, G7). Each group consists of 10 mice. Olive oil was administered to normal group (G1) and negative control group (G2) as an excipient. In all groups, administration was made once a day for five weeks (a total of 35 administrations). Remicade (G6) was administered intraperitoneally, whereas EC-18, methotrexate and olive oil were administered orally in force. For all groups except normal Group (G1), arthritis was induced by immunizing animals twice with bovine type II collagen and complete Freund's adjuvant or incomplete Freund's adjuvant emulsion. During the observation period, common arthritis symptoms were observed once a day, weigh measured once a week, arthritic score evaluation made with the naked eye twice a week, foot thickness measured twice a week.

STAT-3 [6] = experiment: Inhibition of PMA-induced STAT-3 phosphorylation in NK-92 cells (western blot); assay type: cell-based, Human; conditions: EC-18 pre-treatment at different concentrations (FIG. 2A)

Structure (SMILES): CCCCC/C=C\C/C=C\CCCCCCCC(=O)OC(COC(C)=O)COC(=O)CCCCCCCCCCCCCCC (stereo not shown) [EC-18, 1-palmitoyl-2-linoleoyl-3-acetylglycerol]
- amount of phosphorylated STAT-3 (STAT-3 [1]; EC-18 pre-treatment at different concentrations, 15 minutes (FIG. 1A)): decreased by the pre-treatment of EC-18 in a concentration-dependent manner
- inhibitory effect on STAT-3 phosphorylation after 1 hour (STAT-3 [1]; EC-18 treated for 60 minutes (FIG. 1B)): maintained after 1 hour
- survivability ratio of animals [2]: increases survivability ratio
- STAT-3 activation induced by IL10 (luciferase fluorescence) (STAT-3 [3]): decreased
- STAT-3 activation induced by IL10 (luciferase fluorescence) (STAT-3 [4]): decreased
- crushing of cartilage and increase of Pannus (stained arthritic tissue) ([5]; EC-18 500 mg/kg oral (G4), Remicade 20 mg/kg i.p. (G6), vs negative control (FIGS. 7 and 8)): reduced
- arthritis score evaluated by examination with naked eye ([5]; EC-18 125, 500, 2,000 mg/kg oral once a day for five weeks, vs negative control (FIG. 5)): significantly decreased
- histopathological arthritis score of knee joint ([5]; knee joint of both hind legs, EC-18 125, 500, 2,000 mg/kg oral, Remicade 20 mg/kg i.p., methotrexate 2.5 mg/kg oral, vs negative control (FIG. 6)): reduced
- concentration of IL-6 in serum ([5]; serum at day of tissue excision, once a day for five weeks, EC-18 125, 500, 2,000 mg/kg oral, Remicade 20 mg/kg i.p., methotrexate 2.5 mg/kg oral, vs negative control (FIG. 4)): reduced
- amount of phosphorylated STAT-3 (STAT-3 [6]): decreased by the pre-treatment of EC-18 in a concentration-dependent manner
